Measurements published in PMC12040169 (PLOS Biology, 2025).
The list shows a part of the results.

Tested on: T1, CTL2-GFP (C. trachomatis L2/434/Bu, GFP-expressing)
T1 construct: L2/434/Bu, GFP-expressing
Set-up: species or system HeLa; Intracellular C. trachomatis growth in HeLa cells, bulk GFP fluorescence relative to DMSO
Conditions: bulk GFP, single well; 28.5 h, 10 µM; inhibitor

| Structure (SMILES) | % of control remaining |
| --- | --- |
| COc1ccc(C(C)C)cc1-c1cncc(N[C@H](C)c2ccccc2)n1 [CBK065535] | 97.2638% |
| Cn1ncc(Cl)c1C1CCCCCN1C(=O)c1ccco1 (stereo not drawn) [CBK284915] | 81.5162% |
| Cc1ccc(Cl)cc1C(=O)N[C@H]1C[C@@H](c2nnc(CO)n2C2CC2)C1 [CBK306746] | 78.4929% |
| O=C(COc1ccc(Cl)cc1Br)NNC(=O)c1ccccc1O [CBK262943] | 100% |
| O=C1OC(c2ccco2)=N/C1=C/Nc1ccc(C(=O)O)cc1 [CBK265195] | 115.69% |
| Cc1cccc(-c2ncc(NC(=O)Cc3ccc(-c4ccccc4)cc3)nc2-c2ccc(N(C)C)cc2)c1 [CBK037567] | 160.121% |
| CCNC(=O)N1CCCC(Cc2ccc(F)cc2F)(C(=O)OCC)C1 (stereo not drawn) [CBK306734] | 143.874% |
| C[C@@H](NC(=O)N(Cc1ccc([N+](=O)[O-])cc1)CC(C)(C)N)c1cccc2ccccc12 [CBK004921] | 54.3382% |
| COc1cc(CN2CCCN(C)CC2)c([N+](=O)[O-])cc1OC [CBK261539] | 118.967% |
| COc1ccccc1N1CCN(CCc2n[nH]c(=S)n2-c2ccccc2)CC1 [CBK262212] | 87.889% |
| CC(C)(C)OC(=O)n1cnc(CC#N)c1 [CBK000202] | 134.513% |
| Cc1cnn(CC(=O)NC(Cc2ccsc2)c2nccs2)c1 (stereo not drawn) [CBK282825] | 105.65% |
| C[S+]([O-])CCNC(=O)c1cc(-c2ccc(F)cc2)no1 (stereo not drawn) [CBK283251] | 121.069% |
| CCOC(=O)c1ccc(-c2ccc(OC)cc2)cc1 [CBK002658] | 101.103% |
| COc1cc(NC(=O)Cn2cnc3c2c(=O)n(C)c(=O)n3C)c(OC)cc1Cl [CBK133231] | 77.2977% |
| CN(C)S(=O)(=O)Nc1ccc(-c2nnn[nH]2)cc1 [CBK156312] | 160.382% |
| CN(C)CCN(C)C(=O)Cc1csc(-c2ccccc2F)n1 [CBK282173] | 111.315% |
| COC(=O)[C@@H]1Cc2ncn(C(C)C)c2CN1S(=O)(=O)c1ccc(C#N)cc1 [CBK288986] | 119.384% |
| CCCC(CCC(=O)Nc1ccccc1Cl)C(=O)O (stereo not drawn) [CBK286757] | 110.234% |
| O=C(NC1(c2ccc(Cl)cc2)CC1)C1CCS(=O)(=O)C1 (stereo not drawn) [CBK282765] | 151.821% |
| COc1cccc2sc(NC(=O)c3ccc4occc4c3)nc12 [CBK149278] | 112.893% |
| Cc1nn(C)cc1-c1cncn1C(CCN(C)C)c1ccccc1 (stereo not drawn) [CBK281987] | 135.306% |
| COc1ncc(-c2nccnc2NCc2cccc(OC)c2OC)c(OC)n1 [CBK037506] | 184.333% |
| Fc1ccc2nc(NCC3CCCO3)sc2c1 (stereo not drawn) [CBK287647] | 112.173% |
| CN1CCN(CCOC(=O)N2CCN(C(c3ccccc3)c3ccccc3)CC2)CC1 [CBK200419] | 111.016% |
| COc1ccc(CC(=O)NCCc2nnc3ccccn23)cc1 [CBK304613] | 157.756% |

For convenience, part of the list above.

| Structure (SMILES) | % of control remaining |
| --- | --- |
| CN(C)CCN(C)C(=O)Cc1csc(-c2ccccc2F)n1 [CBK282173] | 111.315% |
| COC(=O)[C@@H]1Cc2ncn(C(C)C)c2CN1S(=O)(=O)c1ccc(C#N)cc1 [CBK288986] | 119.384% |
| CCCC(CCC(=O)Nc1ccccc1Cl)C(=O)O (stereo not drawn) [CBK286757] | 110.234% |
| O=C(NC1(c2ccc(Cl)cc2)CC1)C1CCS(=O)(=O)C1 (stereo not drawn) [CBK282765] | 151.821% |

Additional records.

| Structure (SMILES) | % of control remaining |
| --- | --- |
| FC(F)(F)c1ccc(CN2CCC(Oc3nccnc3OC3CCCCC3)CC2)cc1 [CBK082859T] | 74.0975% |
| CN(Cc1cccnc1)CC1CCCN(C(=O)Nc2ccc(Cl)cc2)C1 (stereo not drawn) [CBK305428] | 81.9204% |
| COc1cccc2ncn(CCCn3ccnn3)c(=O)c12 [CBK306650] | 159.897% |
| O=C1NC(=O)C(CC(=O)N2CCCC3(CCN(C(=O)c4cc(F)c(F)cc4F)C3)C2)N1 (stereo not drawn) [CBK131550] | 118.815% |
| Cc1nn(C)c(C)c1CCc1nc(CN2CCN(C)CC2)no1 [CBK306510] | 107.293% |
| CC(=O)NCCSc1nc2cc(Cl)c(Cl)cc2nc1N1CCCC1 [CBK103701] | 109.632% |
| COc1ccccc1C(CNC(=O)Nc1cc(C)on1)N(C)C (stereo not drawn) [CBK305028] | 103.323% |
| O=C(Nc1ccccc1-c1nc2ccccc2[nH]1)c1ccncc1 [CBK270148] | 155.026% |
| CC(Nc1nc(N2CCN(CCO)CC2)nc2ccccc12)c1ccccc1 (stereo not drawn) [CBK269427] | 92.1745% |
| COCc1cc(C[C@H]2CNCC[C@H]2CC(=O)N2CCc3ccccc3C2)no1 [CBK289144] | 128.071% |
| CCN1C(=O)c2ccccc2C(=O)[C@@]2(C)CN(C(C)=O)C[C@@H]12 [CBK281686] | 137.87% |
| O=C(NC(c1ccccc1)c1ccco1)C1CCN(Cc2cccc(Cl)c2)CC1 (stereo not drawn) [CBK148295] | 156.202% |
| Cc1ccc(C(=O)Nc2cc(C)nn2C)c(N2CCOCC2)n1 [CBK106221] | 118.169% |
| CC1(C(=O)NS(=O)(=O)c2cccc(-c3nnco3)c2)CC1 [CBK304683] | 65.4743% |
| CC(=O)c1cc(C(=O)Nc2ccc(Oc3ccc4c(c3)OCO4)cc2)cs1 [CBK286327] | 112.733% |
| COc1ccc(CNC(=O)CCn2c(=O)oc3ccccc32)cc1 [CBK270138] | 158.352% |
| CN(C)CC1CN(C(=O)Nc2ncc(Cc3ccccc3Cl)s2)CCO1 (stereo not drawn) [CBK304107] | 122.361% |
| COc1ccccc1CC(=O)NC(CCSC)c1nnc2ccccn12 (stereo not drawn) [CBK306492] | 121.11% |
| Cc1cccc(C(=O)NC(CC(C)C)c2nnc3n2CCNCC3)c1O (stereo not drawn) [CBK307191] | 143.752% |
| Cc1ccc(C)c(NC(=O)c2cnc3sccn3c2=O)c1 [CBK287451] | 134.15% |
| C1CN2CCC1/C(=N\Nc1nnn[nH]1)C2 [CBK019005C] | 104.959% |
| CCn1cc(CN(CCCn2ccnc2)Cc2cccc(F)c2)cn1 [CBK283124] | 106.844% |
| CN(C)S(=O)(=O)c1ccc2[nH]cc(CCN)c2c1 [CBK268522C] | 152.339% |
| O=C(O)c1sccc1S(=O)(=O)NCc1ccc(Cn2cccn2)cc1 [CBK296707] | 103.707% |
| O=c1cnn([C@H]2C[C@@H](O)[C@@H](CO)O2)c(=O)[nH]1 [CBK201162] | 166.259% |
